According to patent US20260345555A1, “Compositions and Methods for Protecting Salivary Glands from Off-Target Radiation Damage” (University of Rochester, priority 2022, published 2026):
Structures can show the parent of a compound that is named as a salt.

Assay: Drug promiscuity: percent of PubChem BioAssay assays reported as active
Details: percent of BioAssay database assays reported as active (promiscuity)

Going from `COC(=O)C1=C(C)NC(C)=C(C(=O)OC)C1c1ccccc1[N+](=O)[O-]` [Nifedipine (Adalat)] to `CCCSc1ccc2nc(NC(=O)OC)[nH]c2c1` [Albendazole (Albenza)], the “Active (%)” value falls from 11.5% to 9.3%.

Going from `Nc1nc(=O)n([C@@H]2CS[C@H](CO)O2)cc1F` [Emtricitabine (Emtriva)] to `COc1ccc2[nH]cc(CCNC(C)=O)c2c1` [Melatonin], the “Active (%)” value falls from 9.3% to 8.2%.

First: Doripenem hydrate
Second: NC(=O)N1c2ccccc2CC(=O)c2ccccc21 [Oxcarbazepine]
The “Active (%)” value of the first is higher: 1.4% for the first, 1.3% for the second.

Compared with `CC/C(=C(/CC)c1ccc(O)cc1)c1ccc(O)cc1` [Diethylstilbestrol (Stilbestrol)], `COc1cc(/C=C/C(=O)CC(=O)/C=C/c2ccc(O)c(OC)c2)ccc1O` [Curcumin] is higher in “Active (%)” value: 7.2% for the first, 29.7% for the second.

Going from `O=NN(CCCl)C(=O)NC1CCCCC1` [Lomustine (CeeNU)] to `C=C1/C(=C\C=C2/CCC[C@]3(C)[C@@H]([C@H](C)CCCC(C)(C)O)CC[C@@H]23)C[C@@H](O)C[C@@H]1O` [Calcitriol (Rocaltrol)], the “Active (%)” value falls from 16.1% to 15.2%.

Going from `Nc1ccn([C@@H]2O[C@H](CO)[C@@H](O)C2(F)F)c(=O)n1` [Gemcitabine (Gemzar)] to `COC(=O)[C@@H]1CC2=CC(=O)CC[C@]2(C)[C@@]23O[C@@H]2C[C@@]2(C)[C@@H](CC[C@@]24CCC(=O)O4)[C@H]13` [Eplerenone], the “Active (%)” value falls from 46.7% to 5.9%.

First: CC(C)(C)C(=O)OCOP(=O)(COCCn1cnc2c(N)ncnc21)OCOC(=O)C(C)(C)C [Adefovir Dipivoxil (Preveon)]
Second: CCn1cc(C(=O)O)c(=O)c2cc(F)c(N3CCNCC3)nc21 [Enoxacin (Penetrex)]
The “Active (%)” value of the first is higher: 22.7% for the first, 1.9% for the second.

Compared with `C[C@]12C=CC(=O)C=C1CC[C@H]1[C@@H]3C[C@@H](O)[C@](O)(C(=O)CO)[C@@]3(C)C[C@H](O)[C@@]12F` [Triamcinolone (Aristocort)], `CO[C@H]1/C=C/O[C@@]2(C)Oc3c(C)c(O)c4c(O)c(c(/C=N/N5CCN(C)CC5)c(O)c4c3C2=O)NC(=O)/C(C)=C\C=C\[C@H](C)[C@H](O)[C@@H](C)[C@@H](O)[C@@H](C)[C@H](OC(C)=O)[C@@H]1C` [Rifampin] is higher in “Active (%)” value: 2.7% for the first, 11.0% for the second.

Compared with `COc1ccc2c(c1)c(CC(=O)O)c(C)n2C(=O)c1ccc(Cl)cc1` [Indomethacin], `COc1cc2nc(N3CCN(C(=O)c4ccco4)CC3)nc(N)c2cc1OC` [Prazosin HCl] is lower in “Active (%)” value: 6.6% for the first, 6.3% for the second.

Going from `CCCCC1C(=O)N(c2ccccc2)N(c2ccccc2)C1=O` [Phenylbutazone] to `Cc1cnc(C(=O)NCCc2ccc(S(=O)(=O)NC(=O)NC3CCCCC3)cc2)cn1` [Glipizide (Glucotrol)], the “Active (%)” value falls from 1.5% to 0.5%.

Compared with `CC(O)(P(=O)(O)O)P(=O)(O)O` [Etidronate (Didronel)], `O=c1[nH]cnc2c1ncn2[C@H]1CC[C@@H](CO)O1` [Didanosine (Videx)] is higher in “Active (%)” value: 1.1% for the first, 5.7% for the second.

Going from Meropenem to `CO[C@H]1/C=C/O[C@@]2(C)Oc3c(C)c(O)c4c(c3C2=O)C2=NC3(CCN(CC(C)C)CC3)NC2=C(NC(=O)/C(C)=C\C=C\[C@H](C)[C@H](O)[C@@H](C)[C@@H](O)[C@@H](C)[C@H](OC(C)=O)[C@@H]1C)C4=O` [Rifabutin (Mycobutin)], the “Active (%)” value rises from 1.3% to 12.0%.

With `O=C1CCc2cc(OCCCCc3nnnn3C3CCCCC3)ccc2N1` [Cilostazol] the “Active (%)” value was 2.5%.
